Data published in paper PMC8063088.
Results are given in words; binding and its absence hold for the method and conditions named. In cells and extracts the contact can be indirect. Some results given as binding are weak or reduced against the parent protein; the word gives no strength.

Target: T1, RGMB, endogenous in adult mouse cortex (mouse (endogenous in adult mouse cortex)), Q7TQ33
T1 chain: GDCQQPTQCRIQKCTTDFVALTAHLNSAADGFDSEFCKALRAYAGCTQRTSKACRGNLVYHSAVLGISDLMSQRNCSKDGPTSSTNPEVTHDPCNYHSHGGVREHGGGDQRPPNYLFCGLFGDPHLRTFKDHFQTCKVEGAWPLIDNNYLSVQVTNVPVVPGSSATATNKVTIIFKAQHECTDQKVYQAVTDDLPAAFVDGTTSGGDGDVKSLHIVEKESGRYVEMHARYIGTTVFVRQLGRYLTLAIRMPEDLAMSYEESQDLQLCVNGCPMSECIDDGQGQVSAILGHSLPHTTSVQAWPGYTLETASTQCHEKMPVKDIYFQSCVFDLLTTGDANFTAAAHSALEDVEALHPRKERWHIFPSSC
Assay: co-IP; adult mouse cortex lysate (40 mM Tris-HCl pH 7.5, 200 mM NaCl, 10% glycerol, 5 mM EDTA, 0.4% NP-40); sheep anti-RGMB antibody or non-specific sheep IgG, protein G beads; immunoblot for NET1, NEO1, RGMB
Details: remark: other sources report otherwise

B1: NEO1, endogenous in mouse brain and neurons, P97798 37-1492 (receptor)
chain: RPASGAAATKSGSPPQSAGASVRTFTPFYFLVEPVDTLSVRGSSVILNCSAYSEPSPNIEWKKDGTFLNLESDDRRQLLPDGSLFISNVVHSKHNKPDEGFYQCVATVDNLGTIVSRTAKLTVAGLPRFTSQPEPSSVYVGNSAILNCEVNADLVPFVRWEQNRQPLLLDDRIVKLPSGTLVISNATEGDGGLYRCIVESGGPPKFSDEAELKVLQDPEEIVDLVFLMRPSSMMKVTGQSAVLPCVVSGLPAPVVRWMKNEEVLDTESSGRLVLLAGGCLEISDVTEDDAGTYFCIADNGNKTVEAQAELTVQVPPGFLKQPANIYAHESMDIVFECEVTGKPTPTVKWVKNGDVVIPSDYFKIVKEHNLQVLGLVKSDEGFYQCIAENDVGNAQAGAQLIILEHDVAIPTLPPTSLTSATTDHLAPATTGPLPSAPRDVVASLVSTRFIKLTWRTPASDPHGDNLTYSVFYTKEGVARERVENTSQPGEMQVTIQNLMPATVYIFKVMAQNKHGSGESSAPLRVETQPEVQLPGPAPNIRAYATSPTSITVTWETPLSGNGEIQNYKLYYMEKGTDKEQDIDVSSHSYTINGLKKYTEYSFRVVAYNKHGPGVSTQDVAVRTLSDVPSAAPQNLSLEVRNSKSIVIHWQPPSSTTQNGQITGYKIRYRKASRKSDVTETLVTGTQLSQLIEGLDRGTEYNFRVAALTVNGTGPATDWLSAETFESDLDETRVPEVPSSLHVRPLVTSIVVSWTPPENQNIVVRGYAIGYGIGSPHAQTIKVDYKQRYYTIENLDPSSHYVITLKAFNNVGEGIPLYESAVTRPHTDTSEVDLFVINAPYTPVPDPTPMMPPVGVQASILSHDTIRITWADNSLPKHQKITDSRYYTVRWKTNIPANTKYKNANATTLSYLVTGLKPNTLYEFSVMVTKGRRSSTWSMTAHGATFELVPTSPPKDVTVVSKEGKPRTIIVNWQPPSEANGKITGYIIYYSTDVNAEIHDWVIEPVVGNRLTHQIQELTLDTPYYFKIQARNSKGMGPMSEAVQFRTPKADSSDKMPNDQALGSAGKGSRLPDLGSDYKPPMSGSNSPHGSPTSPLDSNMLLVIIVSVGVITIVVVVVIAVFCTRRTTSHQKKKRAACKSVNGSHKYKGNCKDVKPPDLWIHHERLELKPIDKSPDPNPVMTDTPIPRNSQDITPVDNSMDSNIHQRRNSYRGHESEDSMSTLAGRRGMRPKMMMPFDSQPPQPVISAHPIHSLDNPHHHFHSSSLASPARSHLYHPSSPWPIGTSMSLSDRANSTESVRNTPSTDTMPASSSQTCCTDHQDPEGATSSSYLASSQEEDSGQSLPTAHVRPSHPLKSFAVPAIPPPGPPLYDPALPSTPLLSQQALNHHIHSVKTASIGTLGRSRPPMPVVVPSAPEVQETTRMLEDSESSYEPDELTKEMAHLEGLMKDLNAITTA
binding: binds
